# Laboratory results from article PMC10795372.
# By UniProt entry, the sequences of proteins in these tests, tags left out.
# UniProt Q944A7: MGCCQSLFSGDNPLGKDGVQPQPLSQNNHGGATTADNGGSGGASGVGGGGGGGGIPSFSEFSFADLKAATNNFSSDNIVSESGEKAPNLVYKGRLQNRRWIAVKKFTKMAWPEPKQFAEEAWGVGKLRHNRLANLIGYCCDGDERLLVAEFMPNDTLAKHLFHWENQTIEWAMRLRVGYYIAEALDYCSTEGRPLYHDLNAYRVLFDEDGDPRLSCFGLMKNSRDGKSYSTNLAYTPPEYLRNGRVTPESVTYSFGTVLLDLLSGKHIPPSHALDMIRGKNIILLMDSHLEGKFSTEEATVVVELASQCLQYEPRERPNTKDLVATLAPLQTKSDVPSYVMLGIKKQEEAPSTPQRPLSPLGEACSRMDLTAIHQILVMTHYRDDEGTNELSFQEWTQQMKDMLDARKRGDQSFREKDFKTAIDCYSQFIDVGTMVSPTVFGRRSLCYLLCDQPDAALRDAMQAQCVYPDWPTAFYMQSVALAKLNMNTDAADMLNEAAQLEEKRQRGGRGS
# UniProt Q9FHD7: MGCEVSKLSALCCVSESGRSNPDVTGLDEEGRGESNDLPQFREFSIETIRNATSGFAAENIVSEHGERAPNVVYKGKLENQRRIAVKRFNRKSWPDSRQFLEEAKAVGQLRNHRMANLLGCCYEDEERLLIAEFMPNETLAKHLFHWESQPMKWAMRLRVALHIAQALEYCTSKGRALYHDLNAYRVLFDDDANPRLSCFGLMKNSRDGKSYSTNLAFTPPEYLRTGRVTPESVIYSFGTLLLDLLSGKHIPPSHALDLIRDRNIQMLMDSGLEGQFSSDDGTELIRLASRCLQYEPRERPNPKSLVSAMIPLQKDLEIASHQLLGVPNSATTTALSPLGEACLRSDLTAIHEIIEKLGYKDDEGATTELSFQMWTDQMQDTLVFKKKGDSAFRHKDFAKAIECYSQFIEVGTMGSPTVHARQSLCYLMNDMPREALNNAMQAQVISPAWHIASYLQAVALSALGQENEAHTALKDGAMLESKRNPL
# T1: AT5G58150-GFP (Arabidopsis thaliana) (UniProt Q9LVN2)
# T1 sequence: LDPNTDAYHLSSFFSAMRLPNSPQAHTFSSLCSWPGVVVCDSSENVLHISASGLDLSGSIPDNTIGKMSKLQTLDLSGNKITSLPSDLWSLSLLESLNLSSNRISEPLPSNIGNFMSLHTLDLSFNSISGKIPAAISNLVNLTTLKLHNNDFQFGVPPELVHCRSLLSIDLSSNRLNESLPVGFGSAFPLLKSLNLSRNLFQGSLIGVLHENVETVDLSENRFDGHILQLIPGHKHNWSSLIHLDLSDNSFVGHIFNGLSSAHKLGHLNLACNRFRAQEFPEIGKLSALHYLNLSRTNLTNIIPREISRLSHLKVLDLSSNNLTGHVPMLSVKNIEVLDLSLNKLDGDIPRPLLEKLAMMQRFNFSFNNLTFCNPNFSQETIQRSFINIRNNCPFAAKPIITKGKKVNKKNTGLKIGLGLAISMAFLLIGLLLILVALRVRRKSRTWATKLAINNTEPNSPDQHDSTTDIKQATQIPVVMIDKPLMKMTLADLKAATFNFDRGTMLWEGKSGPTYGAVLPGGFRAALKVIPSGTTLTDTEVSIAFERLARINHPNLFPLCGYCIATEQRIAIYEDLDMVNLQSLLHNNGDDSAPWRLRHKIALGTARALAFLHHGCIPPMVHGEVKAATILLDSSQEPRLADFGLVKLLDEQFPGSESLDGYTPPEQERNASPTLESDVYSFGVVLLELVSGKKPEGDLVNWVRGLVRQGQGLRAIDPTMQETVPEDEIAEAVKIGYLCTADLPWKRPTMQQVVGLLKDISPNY
# Target: T1, AT5G58150-GFP (Arabidopsis thaliana)
# Experiment: affinity purification with mass spectrometry; GFP-Trap_A immunoprecipitation from 8-day-old 35S::AT5G58150-GFP seedlings fixed with 1% formaldehyde; lysis buffer 20 mM Tris HCl pH 7.5, 150 mM NaCl, 2 mM EDTA, 0.5% NP-40; on-bead digest, LC-MS/MS; 35S::GFP line as control
row,binding,Molecule
1,binds,AT1G51805
2,binds,BSK1 (Brassinosteroid-Signalling Kinase) (from UniProt Q944A7 1-512)
3,binds,BSK8 (Brassinosteroid-Signalling Kinase) (from UniProt Q9FHD7 1-487)
4,binds,HA1
5,binds,HA2
6,binds,HA3

# Target: T1, AT5G58150-GFP (Arabidopsis thaliana)
# Experiment: as above
# Remark: another data set of the same source
row,binding,Molecule
1,binds,"AT1G53430 (protein, UniProt C0LGG8 29-1038) QLLPEDEVQTLRTIFRKLQNQTVNIERTSCSDQNWNFVVESASNSPTSNITCDCTFNASSVCRVTNIQLKSFSLPGIFPPEFGNLTRLREIDLSRNFLNGTIPTTLSQIPLEILSVIGNRLSGPFPPQLGDITTLTDVNLETNLFTGPLPRNLGNLRSLKELLLSANNFTGQIPESLSNLKNLTEFRIDGNSLSGKIPDFIGNWTLLERLDLQGTSMEGPIPPSISNLTNLTELRITDLRGQAAFSFPDLRNLMKMKRLVLRNCLIRGPIPEYIGSMSELKTLDLSSNMLTGVIPDTFRNLDAFNFMFLNNNSLTGPVPQFIINSKENLDLSDNNFTQPPTLSCNQLDVNLISSYPSVTDNSVQWCLREGLPCPEDAKQSSLFINCGGSRLKIGKDTYTDDLNSRGQSTFSSVSERWGYSSSGVWLGKEDAGYLATDRFNLINGSTPEYYKTARLSPQSLKYYGLCLRRGSYKLQLHFAEIMFSNDQTFNSLGRRIFDIYVQGNLLERDFNIAERAGGVGKPFIRQIDGVQVNGSTLEIHLQWTGKGTNVIPTRGVYGPLISAITITPNFKVDTGKPLSNGAVAGIVIAACAVFGLLVLVILRLTGYLGGKEVDENEELRGLDLQTGSFTLKQIKRATNNFDPENKIGEGGFGPVYKGVLADGMTIAVKQLSSKSKQGNREFVTEIGMISALQHPNLVKLYGCCIEGKELLLVYEYLENNSLARALFGTEKQRLHLDWSTRNKICIGIAKGLAYLHEESRLKIVHRDIKATNVLLDLSLNAKISDFGLAKLNDDENTHISTRIAGTIGYMAPEYAMRGYLTDKADVYSFGVVCLEIVSGKSNTNYRPKEEFVYLLDWAYVLQEQGSLLELVDPDLGTSFSKKEAMRMLNIALLCTNPSPTLRPPMSSVVSMLEGKIKVQPPLVKREADPSGSAAMRFKALELLSQDSESQVSTYARNREQDISSSSMDGPWVDSSFSEPGKDVSLQQQEEGRSSSSSRKLLDDLTDVKIE"

# These are yes or no findings as the source states them, for the method shown. In cells and extracts the contact can be indirect. A yes stands for co-enrichment or nearness to the bait. Other partners may have been found. Where a sequence is shown, tags or fusion partners need not be part of it.
